Experimental data published in the supplement of paper PMC12823440, “Inhibitors supercharge kinase turnover through native proteolytic circuits” (Nature, 2025).
This is one part of the list. The calls rarely recur for the same compound in another form.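 Kinases, fused to nanoluciferase, were expressed in K562 cells; luminescence was measured every 4 h from 2 to 18 h as percent of control (DMSO = 100%, positive control = 0%). A time point is decreased if signal falls significantly (2 sigma). Hits were called by the authors by a rule that is not shown; the count of time points alone does not decide it.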

Amino acid sequences for entries named in this document (tags omitted). A change or cut given only in a name is not applied to a line headed by its entry.
UniProt Q9Y616: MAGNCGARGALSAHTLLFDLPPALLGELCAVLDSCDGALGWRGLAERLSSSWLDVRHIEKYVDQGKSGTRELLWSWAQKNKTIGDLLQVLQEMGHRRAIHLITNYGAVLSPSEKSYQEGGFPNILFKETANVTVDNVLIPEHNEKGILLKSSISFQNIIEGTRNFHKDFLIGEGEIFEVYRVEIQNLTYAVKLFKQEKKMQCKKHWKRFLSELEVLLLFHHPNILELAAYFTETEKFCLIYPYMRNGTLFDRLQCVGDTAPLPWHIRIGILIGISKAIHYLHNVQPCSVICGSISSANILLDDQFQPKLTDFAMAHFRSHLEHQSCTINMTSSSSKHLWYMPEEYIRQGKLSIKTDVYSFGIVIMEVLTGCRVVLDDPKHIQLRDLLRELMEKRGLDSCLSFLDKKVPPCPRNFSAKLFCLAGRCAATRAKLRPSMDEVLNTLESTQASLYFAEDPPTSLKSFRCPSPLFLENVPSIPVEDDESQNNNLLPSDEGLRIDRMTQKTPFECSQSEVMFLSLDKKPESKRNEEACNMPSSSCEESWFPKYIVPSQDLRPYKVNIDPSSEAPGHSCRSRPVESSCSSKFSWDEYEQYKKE
UniProt P23458: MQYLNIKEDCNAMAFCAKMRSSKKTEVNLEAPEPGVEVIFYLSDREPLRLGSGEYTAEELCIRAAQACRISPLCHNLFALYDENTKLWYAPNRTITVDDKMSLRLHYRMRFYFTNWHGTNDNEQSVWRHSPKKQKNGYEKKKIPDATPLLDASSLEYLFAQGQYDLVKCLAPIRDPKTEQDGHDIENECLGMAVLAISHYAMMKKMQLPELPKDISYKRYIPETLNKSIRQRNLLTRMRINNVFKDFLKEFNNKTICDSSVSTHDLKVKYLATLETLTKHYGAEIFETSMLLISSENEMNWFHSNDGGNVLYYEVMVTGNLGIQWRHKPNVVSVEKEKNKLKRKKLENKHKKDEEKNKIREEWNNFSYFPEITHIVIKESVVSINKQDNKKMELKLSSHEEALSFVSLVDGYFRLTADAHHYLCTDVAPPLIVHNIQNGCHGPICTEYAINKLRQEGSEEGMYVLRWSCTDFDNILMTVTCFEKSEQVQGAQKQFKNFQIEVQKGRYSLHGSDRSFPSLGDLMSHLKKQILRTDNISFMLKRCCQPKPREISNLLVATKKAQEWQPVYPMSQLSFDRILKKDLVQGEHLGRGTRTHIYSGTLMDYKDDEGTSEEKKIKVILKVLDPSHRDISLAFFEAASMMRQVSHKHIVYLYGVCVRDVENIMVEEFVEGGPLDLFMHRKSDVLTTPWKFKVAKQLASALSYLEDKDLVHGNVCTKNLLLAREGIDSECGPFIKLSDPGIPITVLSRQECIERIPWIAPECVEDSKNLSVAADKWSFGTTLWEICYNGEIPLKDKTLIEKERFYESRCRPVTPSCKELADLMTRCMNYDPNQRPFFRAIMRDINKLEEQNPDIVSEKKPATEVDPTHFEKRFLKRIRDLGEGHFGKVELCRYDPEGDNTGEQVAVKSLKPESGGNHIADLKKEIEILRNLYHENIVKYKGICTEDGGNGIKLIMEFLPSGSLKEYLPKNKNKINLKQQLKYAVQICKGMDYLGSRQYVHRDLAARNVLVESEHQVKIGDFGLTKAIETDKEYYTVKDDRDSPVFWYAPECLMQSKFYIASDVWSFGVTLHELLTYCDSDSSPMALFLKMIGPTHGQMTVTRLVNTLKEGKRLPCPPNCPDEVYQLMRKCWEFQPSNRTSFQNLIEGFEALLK
UniProt P06239: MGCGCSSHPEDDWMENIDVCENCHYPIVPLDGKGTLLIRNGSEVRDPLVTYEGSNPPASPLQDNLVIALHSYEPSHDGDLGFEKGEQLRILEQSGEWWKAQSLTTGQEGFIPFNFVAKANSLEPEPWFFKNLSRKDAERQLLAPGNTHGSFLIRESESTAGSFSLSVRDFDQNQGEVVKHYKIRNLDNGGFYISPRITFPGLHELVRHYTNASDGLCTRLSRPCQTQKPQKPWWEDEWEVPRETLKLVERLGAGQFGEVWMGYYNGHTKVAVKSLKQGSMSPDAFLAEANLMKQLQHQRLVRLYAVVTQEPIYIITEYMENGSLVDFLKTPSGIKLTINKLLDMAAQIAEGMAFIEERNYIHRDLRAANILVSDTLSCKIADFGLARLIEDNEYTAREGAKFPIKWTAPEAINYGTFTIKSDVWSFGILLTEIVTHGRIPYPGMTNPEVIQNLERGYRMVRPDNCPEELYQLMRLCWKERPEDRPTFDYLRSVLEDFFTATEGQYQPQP
UniProt P53667: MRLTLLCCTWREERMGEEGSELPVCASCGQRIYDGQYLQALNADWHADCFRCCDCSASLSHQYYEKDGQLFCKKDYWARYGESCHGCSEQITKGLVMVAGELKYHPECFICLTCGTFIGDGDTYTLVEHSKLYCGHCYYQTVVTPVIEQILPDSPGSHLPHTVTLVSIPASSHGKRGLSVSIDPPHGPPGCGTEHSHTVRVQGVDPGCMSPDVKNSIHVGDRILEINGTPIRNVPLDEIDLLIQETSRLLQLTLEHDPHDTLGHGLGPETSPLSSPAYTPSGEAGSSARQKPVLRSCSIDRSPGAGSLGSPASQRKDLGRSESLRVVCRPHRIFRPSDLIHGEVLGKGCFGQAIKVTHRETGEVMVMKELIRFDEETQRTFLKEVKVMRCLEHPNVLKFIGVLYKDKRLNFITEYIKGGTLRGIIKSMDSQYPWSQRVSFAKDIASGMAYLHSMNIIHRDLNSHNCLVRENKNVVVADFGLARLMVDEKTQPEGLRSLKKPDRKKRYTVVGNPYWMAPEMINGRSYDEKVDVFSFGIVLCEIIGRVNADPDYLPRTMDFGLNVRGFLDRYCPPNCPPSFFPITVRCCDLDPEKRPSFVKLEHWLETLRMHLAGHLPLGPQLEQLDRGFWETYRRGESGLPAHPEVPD
UniProt P53671: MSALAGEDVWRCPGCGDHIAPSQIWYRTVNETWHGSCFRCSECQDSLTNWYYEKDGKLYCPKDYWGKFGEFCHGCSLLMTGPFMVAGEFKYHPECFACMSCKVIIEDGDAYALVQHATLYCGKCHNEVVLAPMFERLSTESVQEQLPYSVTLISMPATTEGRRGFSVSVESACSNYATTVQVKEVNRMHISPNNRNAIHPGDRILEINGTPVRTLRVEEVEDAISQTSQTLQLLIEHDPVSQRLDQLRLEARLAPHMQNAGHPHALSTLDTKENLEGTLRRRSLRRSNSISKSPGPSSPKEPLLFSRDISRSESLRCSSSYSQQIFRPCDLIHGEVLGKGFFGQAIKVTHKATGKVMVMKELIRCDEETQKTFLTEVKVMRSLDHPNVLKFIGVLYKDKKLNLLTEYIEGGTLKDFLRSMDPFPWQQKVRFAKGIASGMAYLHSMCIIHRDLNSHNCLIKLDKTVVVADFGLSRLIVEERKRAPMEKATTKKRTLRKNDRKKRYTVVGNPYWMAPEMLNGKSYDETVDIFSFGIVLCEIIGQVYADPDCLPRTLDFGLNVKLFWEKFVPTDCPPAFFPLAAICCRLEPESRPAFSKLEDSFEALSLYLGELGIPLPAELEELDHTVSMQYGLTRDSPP
UniProt Q8IWU2: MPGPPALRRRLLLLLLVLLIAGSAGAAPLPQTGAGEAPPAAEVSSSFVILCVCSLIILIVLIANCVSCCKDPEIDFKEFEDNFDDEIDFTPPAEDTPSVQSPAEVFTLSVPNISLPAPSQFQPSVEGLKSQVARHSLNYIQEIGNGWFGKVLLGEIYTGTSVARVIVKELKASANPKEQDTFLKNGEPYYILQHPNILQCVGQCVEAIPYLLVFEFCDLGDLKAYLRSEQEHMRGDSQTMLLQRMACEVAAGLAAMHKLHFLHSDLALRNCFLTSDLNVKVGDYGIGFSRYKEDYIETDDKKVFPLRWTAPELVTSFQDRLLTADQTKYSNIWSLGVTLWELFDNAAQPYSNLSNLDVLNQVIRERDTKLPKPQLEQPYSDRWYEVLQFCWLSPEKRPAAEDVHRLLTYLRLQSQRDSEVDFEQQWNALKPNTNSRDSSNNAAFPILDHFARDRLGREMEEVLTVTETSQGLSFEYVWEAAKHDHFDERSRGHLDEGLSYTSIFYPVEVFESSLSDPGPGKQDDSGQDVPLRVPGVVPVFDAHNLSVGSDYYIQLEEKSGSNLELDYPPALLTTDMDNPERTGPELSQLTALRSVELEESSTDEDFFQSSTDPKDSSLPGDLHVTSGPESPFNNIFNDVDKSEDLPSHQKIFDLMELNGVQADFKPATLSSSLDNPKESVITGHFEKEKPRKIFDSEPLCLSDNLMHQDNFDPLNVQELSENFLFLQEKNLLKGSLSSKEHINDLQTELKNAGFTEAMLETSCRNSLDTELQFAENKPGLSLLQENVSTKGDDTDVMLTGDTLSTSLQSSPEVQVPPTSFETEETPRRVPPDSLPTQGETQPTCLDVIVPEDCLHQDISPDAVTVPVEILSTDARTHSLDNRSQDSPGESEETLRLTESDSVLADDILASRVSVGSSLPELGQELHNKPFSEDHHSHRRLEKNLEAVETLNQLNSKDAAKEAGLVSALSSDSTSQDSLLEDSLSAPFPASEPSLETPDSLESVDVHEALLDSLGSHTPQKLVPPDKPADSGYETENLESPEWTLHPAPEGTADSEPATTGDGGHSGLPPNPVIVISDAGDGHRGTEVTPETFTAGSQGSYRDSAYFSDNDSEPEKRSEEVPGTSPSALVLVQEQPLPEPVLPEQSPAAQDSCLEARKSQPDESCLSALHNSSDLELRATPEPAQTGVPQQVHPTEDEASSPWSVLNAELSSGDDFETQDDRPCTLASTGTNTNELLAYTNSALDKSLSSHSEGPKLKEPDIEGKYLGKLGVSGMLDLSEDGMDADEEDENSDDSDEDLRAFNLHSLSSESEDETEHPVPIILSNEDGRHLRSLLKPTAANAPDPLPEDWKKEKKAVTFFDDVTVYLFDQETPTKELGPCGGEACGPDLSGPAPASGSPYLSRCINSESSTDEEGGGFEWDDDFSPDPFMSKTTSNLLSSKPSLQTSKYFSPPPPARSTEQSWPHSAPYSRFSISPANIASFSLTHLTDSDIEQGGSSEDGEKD
UniProt P07948: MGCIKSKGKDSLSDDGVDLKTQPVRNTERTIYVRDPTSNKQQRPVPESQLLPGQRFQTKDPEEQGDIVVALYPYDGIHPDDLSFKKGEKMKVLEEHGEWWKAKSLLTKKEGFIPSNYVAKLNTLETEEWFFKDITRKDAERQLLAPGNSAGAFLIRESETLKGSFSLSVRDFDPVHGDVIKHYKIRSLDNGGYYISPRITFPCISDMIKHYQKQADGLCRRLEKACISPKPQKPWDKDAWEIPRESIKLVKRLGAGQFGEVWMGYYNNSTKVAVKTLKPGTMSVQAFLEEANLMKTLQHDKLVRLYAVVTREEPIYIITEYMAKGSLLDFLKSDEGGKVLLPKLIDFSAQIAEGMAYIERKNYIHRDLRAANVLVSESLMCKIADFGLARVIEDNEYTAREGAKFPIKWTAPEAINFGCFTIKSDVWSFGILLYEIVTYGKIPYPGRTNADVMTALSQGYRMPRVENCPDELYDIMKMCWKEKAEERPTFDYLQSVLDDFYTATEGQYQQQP
UniProt Q12851: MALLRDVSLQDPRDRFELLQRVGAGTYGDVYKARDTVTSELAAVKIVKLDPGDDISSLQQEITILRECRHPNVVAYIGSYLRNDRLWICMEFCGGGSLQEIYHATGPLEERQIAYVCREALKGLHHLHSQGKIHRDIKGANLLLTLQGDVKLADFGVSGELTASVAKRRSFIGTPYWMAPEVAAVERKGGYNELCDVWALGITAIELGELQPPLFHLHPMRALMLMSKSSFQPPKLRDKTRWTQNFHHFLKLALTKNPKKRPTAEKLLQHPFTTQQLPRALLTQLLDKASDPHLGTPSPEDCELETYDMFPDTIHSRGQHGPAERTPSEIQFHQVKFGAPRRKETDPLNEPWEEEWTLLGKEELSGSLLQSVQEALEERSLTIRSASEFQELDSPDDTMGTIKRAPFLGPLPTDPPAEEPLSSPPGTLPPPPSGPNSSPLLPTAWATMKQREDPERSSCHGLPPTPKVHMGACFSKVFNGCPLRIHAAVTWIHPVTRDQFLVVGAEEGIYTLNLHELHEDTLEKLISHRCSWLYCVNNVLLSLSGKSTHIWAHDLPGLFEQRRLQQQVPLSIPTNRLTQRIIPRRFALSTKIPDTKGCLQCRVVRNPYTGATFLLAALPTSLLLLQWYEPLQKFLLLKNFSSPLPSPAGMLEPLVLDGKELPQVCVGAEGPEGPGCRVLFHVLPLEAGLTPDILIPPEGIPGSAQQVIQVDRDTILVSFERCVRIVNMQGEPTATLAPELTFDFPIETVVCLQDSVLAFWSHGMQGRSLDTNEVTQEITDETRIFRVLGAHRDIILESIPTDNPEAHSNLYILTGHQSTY

Legend:
Test in all cases: kinase-Nluc reporter destabilization hit call (1 = scored as downregulated) (binary); higher = compound decreases kinase abundance
Conditions in all cases: K562; 2-18 h
IRAK3 = IRAK3 (UniProt Q9Y616)
JAK1 = JAK1 (UniProt P23458)
LCK = LCK (UniProt P06239)
LIMK1 = LIMK1 (UniProt P53667)
LIMK2 = LIMK2 (UniProt P53671)
LMTK2 = LMTK2 (UniProt Q8IWU2)
LYN = LYN (UniProt P07948)
MAP2K1 = MAP2K1 (UniProt Q02750)
MAP2K2 = MAP2K2 (UniProt P36507)
MAP4K2 = MAP4K2 (UniProt Q12851)

Measured: kinase-Nluc reporter destabilization hit call

O=C1NC(=O)C(c2cn(-c3ccccc3)nc2-c2ccc(F)cc2)N1 (stereo not given) (10 µM)
inactive: IRAK3 = 0 | JAK1 = 0 | LCK 0 | LIMK1 = 0 | LIMK2 = 0 | LMTK2 = 0 | LYN 0 | MAP2K1 = 0 | MAP2K2 = 0 | MAP4K2 = 0

CCCCCCCC/C=C\CCCCCCCC(=O)NCC(=O)O [N-Oleoyl glycine] (10 µM)
inactive: IRAK3 = 0 | JAK1 = 0 | LCK 0 | LIMK1 = 0 | LIMK2 = 0 | LMTK2 = 0 | LYN 0 | MAP2K1 = 0 | MAP2K2 = 0 | MAP4K2 = 0

CC1=C(CC(=O)O)c2cc(F)ccc2/C1=C\c1ccc(C(C)C)cc1 (10 µM)
inactive: IRAK3 = 0 | JAK1 = 0 | LCK 0 | LIMK1 = 0 | LIMK2 = 0 | LMTK2 = 0 | LYN 0 | MAP2K1 = 0 | MAP2K2 = 0 | MAP4K2 = 0

CCC(C)(C)C(=O)N(O)Cc1ccccc1 (10 µM)
inactive: IRAK3 = 0 | JAK1 = 0 | LCK 0 | LIMK1 = 0 | LIMK2 = 0 | LMTK2 = 0 | LYN 0 | MAP2K1 = 0 | MAP2K2 = 0 | MAP4K2 = 0

CN(C)Cc1cccc(N=C(c2ccccc2)c2c(O)[nH]c3cc(C(N)=O)ccc23)c1 (10 µM)
inactive: IRAK3 = 0 | JAK1 = 0 | LCK 0 | LIMK1 = 0 | LIMK2 = 0 | LMTK2 = 0 | LYN 0 | MAP2K1 = 0 | MAP2K2 = 0 | MAP4K2 = 0

CN1C(=O)NC(Cc2c[nH]c3c(Cl)cccc23)C1=O (racemic) [Necrostatin 2 (racemate)] (10 µM)
inactive: IRAK3 = 0 | JAK1 = 0 | LCK 0 | LIMK1 = 0 | LIMK2 = 0 | LMTK2 = 0 | LYN 0 | MAP2K1 = 0 | MAP2K2 = 0 | MAP4K2 = 0

CC(C)(C)C(=O)N1N=CC[C@H]1c1ccccc1 (10 µM)
inactive: IRAK3 = 0 | JAK1 = 0 | LCK 0 | LIMK1 = 0 | LIMK2 = 0 | LMTK2 = 0 | LYN 0 | MAP2K1 = 0 | MAP2K2 = 0 | MAP4K2 = 0

Cn1ncc(Cl)c1-c1cc(C(=O)N[C@H](CN)Cc2ccc(F)c(F)c2)sc1Cl (10 µM)
inactive: IRAK3 = 0 | JAK1 = 0 | LCK 0 | LIMK1 = 0 | LIMK2 = 0 | LMTK2 = 0 | LYN 0 | MAP2K1 = 0 | MAP2K2 = 0 | MAP4K2 = 0

C=CC(=O)N1CCC(Oc2cc3c(Nc4ccc(Cl)c(Cl)c4F)ncnc3cc2OC)CC1 [Poziotinib] (2.5 µM)
inactive: IRAK3 = 0 | JAK1 = 0 | LCK 0 | LIMK1 = 0 | LIMK2 = 0 | LMTK2 = 0 | LYN 0 | MAP2K1 = 0 | MAP2K2 = 0 | MAP4K2 = 0

Cc1cccc(-c2[nH]ncc2-c2ccc3ncccc3n2)n1 (10 µM)
inactive: IRAK3 = 0 | JAK1 = 0 | LCK 0 | LIMK1 = 0 | LIMK2 = 0 | LMTK2 = 0 | LYN 0 | MAP2K1 = 0 | MAP2K2 = 0 | MAP4K2 = 0

CNC(=O)c1cc(Oc2ccc3nc(N[C@@H]4CCCC[C@H]4O)sc3c2)ccn1 (10 µM)
inactive: IRAK3 = 0 | JAK1 = 0 | LCK 0 | LIMK1 = 0 | LIMK2 = 0 | LMTK2 = 0 | LYN 0 | MAP2K1 = 0 | MAP2K2 = 0 | MAP4K2 = 0

c1cc(-c2cnn3cc(-c4ccc(N5CCNCC5)cc4)cnc23)c2cccnc2c1 (2.5 µM)
inactive: IRAK3 = 0 | JAK1 = 0 | LCK 0 | LIMK1 = 0 | LIMK2 = 0 | LMTK2 = 0 | LYN 0 | MAP2K1 = 0 | MAP2K2 = 0 | MAP4K2 = 0

CC(C)c1ccc(CC(=O)N2CCN(c3ccc(C#N)nn3)CC2)cc1 (10 µM)
inactive: IRAK3 = 0 | JAK1 = 0 | LCK 0 | LIMK1 = 0 | LIMK2 = 0 | LMTK2 = 0 | LYN 0 | MAP2K1 = 0 | MAP2K2 = 0 | MAP4K2 = 0

CC(C)(C)c1cc(C(c2cc3c(cc2O)OCO3)N2CCOCC2)cc(C(C)(C)C)c1O (stereo not given) (2.5 µM)
inactive: IRAK3 = 0 | JAK1 = 0 | LCK 0 | LIMK1 = 0 | LIMK2 = 0 | LMTK2 = 0 | LYN 0 | MAP2K1 = 0 | MAP2K2 = 0 | MAP4K2 = 0

C=CS(=O)(=O)c1ccc(Nc2nc(OCC3CCCCC3)c3[nH]cnc3n2)cc1 (2.5 µM)
inactive: IRAK3 = 0 | JAK1 = 0 | LCK 0 | LIMK1 = 0 | LIMK2 = 0 | LMTK2 = 0 | LYN 0 | MAP2K1 = 0 | MAP2K2 = 0 | MAP4K2 = 0

CC[C@H](Nc1ncnc2[nH]cnc12)c1oc2ccccc2c(=O)c1-c1cccc(F)c1 [Tenalisib] (10 µM)
inactive: IRAK3 = 0 | JAK1 = 0 | LCK 0 | LIMK1 = 0 | LIMK2 = 0 | LMTK2 = 0 | LYN 0 | MAP2K1 = 0 | MAP2K2 = 0 | MAP4K2 = 0

C[C@@H]1C[C@H]2O[C@@]3(O[C@@H]2C(C)(C)O)[C@H](O)[C@@]2(C)[C@@H]4CC[C@H]5C(C)(C)[C@@H](O[C@@H]6OC[C@H](O)[C@H](O)[C@H]6O)CC[C@@]56C[C@@]46CC[C@]2(C)[C@@H]13 [Cimiracemoside C] (10 µM)
inactive: IRAK3 = 0 | JAK1 = 0 | LCK 0 | LIMK1 = 0 | LIMK2 = 0 | LMTK2 = 0 | LYN 0 | MAP2K1 = 0 | MAP2K2 = 0 | MAP4K2 = 0

CCc1ccc(C(=O)COc2ccc(CC3SC(=O)NC3=O)cc2)nc1 (stereo not given) (10 µM)
inactive: IRAK3 = 0 | JAK1 = 0 | LCK 0 | LIMK1 = 0 | LIMK2 = 0 | LMTK2 = 0 | LYN 0 | MAP2K1 = 0 | MAP2K2 = 0 | MAP4K2 = 0

CC(=O)Nc1nc2ccc(-c3cnc(C)c(NC(=O)OC4CCCCC4)c3)cc2s1 (10 µM)
inactive: IRAK3 = 0 | JAK1 = 0 | LCK 0 | LIMK1 = 0 | LIMK2 = 0 | LMTK2 = 0 | LYN 0 | MAP2K1 = 0 | MAP2K2 = 0 | MAP4K2 = 0

O=C(Nc1ccc(Cl)cc1)C1CCCN(C(=O)c2cccc(-c3ccco3)c2)C1 (stereo not given) (2.5 µM)
inactive: IRAK3 = 0 | JAK1 = 0 | LCK 0 | LIMK1 = 0 | LIMK2 = 0 | LMTK2 = 0 | LYN 0 | MAP2K1 = 0 | MAP2K2 = 0 | MAP4K2 = 0

Reprinted at random: 2 records from the list, in no set order.
CC[C@H](Nc1ncnc2[nH]cnc12)c1oc2ccccc2c(=O)c1-c1cccc(F)c1 [Tenalisib] (10 µM)
inactive: IRAK3 = 0 | JAK1 = 0 | LCK 0 | LIMK1 = 0 | LIMK2 = 0 | LMTK2 = 0 | LYN 0 | MAP2K1 = 0 | MAP2K2 = 0 | MAP4K2 = 0

CCc1ccc(C(=O)COc2ccc(CC3SC(=O)NC3=O)cc2)nc1 (stereo not given) (10 µM)
inactive: IRAK3 = 0 | JAK1 = 0 | LCK 0 | LIMK1 = 0 | LIMK2 = 0 | LMTK2 = 0 | LYN 0 | MAP2K1 = 0 | MAP2K2 = 0 | MAP4K2 = 0

(continued)

C=C(F)C(=O)N1CCN(c2nc(OC[C@@H]3CCCN3C)nc3c2CCN(c2cccc4cccc(Cl)c24)C3)C[C@@H]1CC#N (2.5 µM)
inactive: IRAK3 = 0 | JAK1 = 0 | LCK 0 | LIMK1 = 0 | LIMK2 = 0 | LMTK2 = 0 | LYN 0 | MAP2K1 = 0 | MAP2K2 = 0 | MAP4K2 = 0

O=C1NC(=O)C(=Cc2ccc3c(c2)OCO3)S1 (10 µM)
inactive: IRAK3 = 0 | JAK1 = 0 | LCK 0 | LIMK1 = 0 | LIMK2 = 0 | LMTK2 = 0 | LYN 0 | MAP2K1 = 0 | MAP2K2 = 0 | MAP4K2 = 0

COc1ccc(CCNc2ncc3c(=O)n(-c4cccc(F)c4)c(=O)[nH]c3n2)cc1OC (2 µM)
inactive: IRAK3 = 0 | JAK1 = 0 | LCK 0 | LIMK1 = 0 | LIMK2 = 0 | LMTK2 = 0 | LYN 0 | MAP2K1 = 0 | MAP2K2 = 0 | MAP4K2 = 0

O=S(=O)(c1cccc2cnccc12)N1CCNCC1 (10 µM)
inactive: IRAK3 = 0 | JAK1 = 0 | LCK 0 | LIMK1 = 0 | LIMK2 = 0 | LMTK2 = 0 | LYN 0 | MAP2K1 = 0 | MAP2K2 = 0 | MAP4K2 = 0

O=C1NC(=O)/C(=C/c2ccc(-c3ccc(F)cc3O)o2)S1 (10 µM)
inactive: IRAK3 = 0 | JAK1 = 0 | LCK 0 | LIMK1 = 0 | LIMK2 = 0 | LMTK2 = 0 | LYN 0 | MAP2K1 = 0 | MAP2K2 = 0 | MAP4K2 = 0

COc1cc(-c2cc(-c3cc(OC)c(OC)c(OC)c3)cc(C(F)P(=O)(OCOC(=O)C(C)(C)C)OCOC(=O)C(C)(C)C)c2)cc(OC)c1OC (stereo not given) [Stafia-1-dipivaloyloxymethyl ester] (2.5 µM)
inactive: IRAK3 = 0 | JAK1 = 0 | LCK 0 | LIMK1 = 0 | LIMK2 = 0 | LMTK2 = 0 | LYN 0 | MAP2K1 = 0 | MAP2K2 = 0 | MAP4K2 = 0

COc1ccc2c(=O)c(-c3ccccc3)coc2c1 [7-Methoxyisoflavone] (10 µM)
inactive: IRAK3 = 0 | JAK1 = 0 | LCK 0 | LIMK1 = 0 | LIMK2 = 0 | LMTK2 = 0 | LYN 0 | MAP2K1 = 0 | MAP2K2 = 0 | MAP4K2 = 0

CC[C@@H](N)CNc1ccnc(-c2cc(-c3cnn(C)c3)ccc2O)n1 (2.5 µM)
inactive: IRAK3 = 0 | JAK1 = 0 | LCK 0 | LIMK1 = 0 | LIMK2 = 0 | LMTK2 = 0 | LYN 0 | MAP2K1 = 0 | MAP2K2 = 0 | MAP4K2 = 0

CC1(COc2ccc3c(c2)ncn3-c2ccc3cccc(N4CCC(N)CC4)c3n2)COC1 [Crenolanib] (2.5 µM)
inactive: IRAK3 = 0 | JAK1 = 0 | LCK 0 | LIMK1 = 0 | LIMK2 = 0 | LMTK2 = 0 | LYN 0 | MAP2K1 = 0 | MAP2K2 = 0 | MAP4K2 = 0

Cc1cc2ncc(-c3ccccc3)nc2cc1C (10 µM)
inactive: IRAK3 = 0 | JAK1 = 0 | LCK 0 | LIMK1 = 0 | LIMK2 = 0 | LMTK2 = 0 | LYN 0 | MAP2K1 = 0 | MAP2K2 = 0 | MAP4K2 = 0
